In all, about 33,000 sequences were measured (“E-score (-0.5 to 0.5)”: median about -0.0059, highest 2% from about 0.26 on). The list shows a part of the results.
These sequences were tested against T1, Cin5 (UniProt P40917) (assay: PBM E-score (8-mer binding enrichment) (E-score (-0.5 to 0.5)); higher = stronger / more preferred TF binding). Details: protein concentration: 100 nM; construct: GST-full length.
T1 sequence: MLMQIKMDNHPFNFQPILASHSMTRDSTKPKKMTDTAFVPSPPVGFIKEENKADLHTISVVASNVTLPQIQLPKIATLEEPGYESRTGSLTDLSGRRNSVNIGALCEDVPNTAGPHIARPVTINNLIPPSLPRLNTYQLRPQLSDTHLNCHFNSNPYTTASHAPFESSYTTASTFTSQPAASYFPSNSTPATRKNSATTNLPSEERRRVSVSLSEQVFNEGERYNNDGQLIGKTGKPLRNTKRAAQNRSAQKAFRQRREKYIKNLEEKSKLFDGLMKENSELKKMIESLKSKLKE
Procedure, shortened: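 Universal all-10-mer Agilent arrays, double-stranded by primer extension on fresh or once-stripped slides, were probed with about 100-200 nM GST-tagged yeast transcription factors made by PURExpress. Fluorescent anti-GST detected bound protein, and masliner normalised the scans. E-scores from the Universal PBM Analysis Suite were given to each ungapped eight-base word pooled with its reverse complement.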

Row | Sequence | PBM E-score
1 | ACGCGCAA | 0.122
2 | CAAACCGC | -0.016
3 | ATGCACAT | 0.0691
4 | ACTTCCAA | 0.0556
5 | ATTTGTCA | 0.164
6 | ATGTAAGA | 0.274
7 | ACACGACG | -0.0075
8 | AATCAAGT | 0.164
9 | AACTATGT | 0.0917
10 | ACTAGAAT | 0.196
11 | ACCAGGGA | -0.145
12 | CCGGGGAG | -0.113
13 | AAAGAAGG | -0.0513
14 | AGCATTTG | 0.0821
15 | ATAATGTC | 0.248
16 | GCGAAAGC | -0.0639
17 | AGTACAGG | 0.0687
18 | CGGCTGGC | -0.191
19 | CCGTAACA | -0.0307
20 | ACTTCCCA | 0.00063
21 | CCTGTAAG | -0.0519
22 | GCATCAAC | 0.0847
23 | AAAATTTA | -0.0287
24 | CGAAAAAG | 0.0943
25 | ACGCCCGA | -0.032

Row | Sequence | PBM E-score
26 | CCTTTAAG | -0.107
27 | ACCGGCGG | -0.15
28 | TATTGAGA | 0.225
29 | CTAGGTGC | -0.145
30 | ACAGAGAA | 0.0544
31 | CGGCCGAC | -0.0403
32 | GTAAGTCA | 0.0491
33 | ACTGGCGG | 0.0401
34 | GTGGAAGA | -0.192
35 | CGACCGGA | -0.124
36 | CCAGTAAA | 0.135
37 | TCATCCCA | -0.0358
38 | AGTATTCA | 0.165
39 | GACTCTAA | 0.0313
40 | ACCGAGTG | -0.141
41 | TCATAAGA | 0.0448
42 | CGCGGTAC | -0.0212
43 | TACATCCA | 0.0256
44 | AGGCTGCG | -0.0969
45 | CCTGGGCC | -0.283
46 | TAATTTCA | 0.181
47 | ACCAAAAG | -0.00654
48 | GGGGCATA | -0.0532
49 | AATGCAGC | -0.198
50 | CCGGATAG | 0.0797

Row | Sequence | PBM E-score
51 | CAACGTCA | -0.00881
52 | TCCAAAAA | 0.0023
53 | GAGACCGA | -0.118
54 | AGCCTGCC | -0.106
55 | GGCGCCGA | 0.0266
56 | AACGAACA | 0.161
57 | AAGACTTC | -0.221
58 | CCGATACG | -0.205
59 | ACTCCTGG | -0.216
60 | CCGTCAGG | -0.184
61 | GTAATGGA | 0.254
62 | GACCATGC | -0.108
63 | TTAATAAA | 0.287
64 | TGACTCCA | -0.17
65 | GAATTGGA | 0.104
66 | CGTTGCCC | -0.169
67 | CCCCTAAG | -0.119
68 | CACGTAGC | -0.252
69 | CATGAACC | 0.184
70 | ATACAAAC | 0.257
71 | GTACTTAA | -0.0728
72 | CACAGGTC | -0.18
73 | ATAGGCCG | -0.185
74 | CACGTTCG | -0.101
75 | CTAGGAGA | -0.235

Row | Sequence | PBM E-score
76 | AACCGCGT | 0.0958
77 | CGCGTGGA | -0.191
78 | GTTAGGGA | -0.0839
79 | CGTGGCAG | -0.0809
80 | ATAGTGGG | 0.0536
81 | ACCACGCG | -0.0218
82 | GTCAACCA | -0.158
83 | ATGACGAC | 0.0658
84 | ACTAAACA | 0.258
85 | AACCAACA | 0.0494
86 | CGTTTATC | 0.0462
87 | ATCATCCC | 0.103
88 | CGTCATTA | 0.191
89 | ACCCCCTG | -0.454
90 | AGGTGAGC | -0.00093
91 | GCCTGACC | -0.243
92 | AGTGGTGC | -0.125
93 | ACTCACGG | 0.08
94 | ACCGTGGA | -0.116
95 | CAGTAAGA | 0.0856
96 | CCGACGAA | 0.0828
97 | ACGTCTAG | -0.101
98 | CCTGGCTC | -0.0734
99 | GCCTAGGC | -0.226
100 | AGTGACCG | -0.125

3 entries from above, reformatted.
Row,Sequence,PBM E-score
87,ATCATCCC,0.103
88,CGTCATTA,0.191
89,ACCCCCTG,-0.454

Remaining list, next part.

Row | Sequence | PBM E-score
101 | CACTCAGG | -0.0156
102 | AACCCACC | 0.179
103 | AACATAAG | 0.328
104 | GACACCGA | -0.0731
105 | AGCAGCTA | 0.0637
106 | CCAATCGA | 0.00109
107 | GATACTTA | -0.0873
108 | ATCTACTA | 0.204
109 | AGTCTCAG | -0.123
110 | ATGTTAAC | 0.136
111 | AAGCCATG | -0.149
112 | ACTGTTTA | -0.0234
113 | ATCTCGCG | 0.266
114 | GAGCACAC | -0.0701
115 | CTTCCAAG | -0.0346
116 | GTTGCATA | 0.0614
117 | CGAATCTA | 0.0271
118 | GATCCCCA | -0.0318
119 | TGGCAGAA | 0.0418
120 | CCCTGTTC | -0.265
121 | CAACTGGG | -0.18
122 | CGCCCGCA | 0.13
123 | CACGCTAA | -0.0768
124 | AGCATGCC | -0.0948
125 | GGAAGTCA | 0.0165

Row | Sequence | PBM E-score
126 | AGTGCCTG | -0.116
127 | GGGGTCAA | -0.0137
128 | AAACGAGA | 0.0715
129 | AATGCTTA | 0.276
130 | AGGCATGG | -0.115
131 | ACCCATAA | 0.162
132 | GCTGCCCC | -0.22
133 | CAGTTAAC | 0.0905
134 | GCCCCCTA | -0.376
135 | AGATCGAG | 0.0463
136 | CGTAAATA | 0.0783
137 | ATTTTCCG | 0.329
138 | AATCTTGA | -0.0469
139 | ATTCGTTA | 0.146
140 | CGGACTGC | -0.0755
141 | AATGCATG | 0.183
142 | ATTGAGCG | 0.0795
143 | GGTTTCAA | 0.143
144 | GCCCGGTA | -0.115
145 | GTCGATCA | 0.0309
146 | ACTTTCTC | -0.0512
147 | AATAGAAC | 0.127
148 | CAGTTGAC | 0.145
149 | CCGCGCCA | -0.0465
150 | GCGTTGAA | 0.015

Row | Sequence | PBM E-score
151 | AGCGCCCG | -0.14
152 | ACACCGTC | -0.175
153 | CACGGCCC | -0.213
154 | CTTGGGAA | -0.0578
155 | CTAGTAGA | -0.00964
156 | AACTAGAA | 0.0901
157 | GTCAGGAC | -0.116
158 | CCTAACCC | -0.302
159 | ACGATGCT | -0.00619
160 | ATTTTCGA | -0.0217
161 | GATGTCCC | -0.00702
162 | GTGGTCTA | -0.107
163 | GCCTTAGC | -0.168
164 | AAACTCCC | -0.0302
165 | AAGATTAG | 0.13
166 | GCAGGCCC | -0.388
167 | CTTCAACC | 0.0799
168 | CCCATTCC | -0.153
169 | ATATGGAC | -0.0329
170 | ACCCAACG | 0.0778
171 | ATCCATAC | 0.108
172 | GGGAGTAC | -0.129

A portion from the list above, for reference:
Row | Sequence | PBM E-score
107 | GATACTTA | -0.0873
108 | ATCTACTA | 0.204
109 | AGTCTCAG | -0.123
110 | ATGTTAAC | 0.136
111 | AAGCCATG | -0.149
112 | ACTGTTTA | -0.0234

Source: the supplement of paper PMC3334620
